Test results published in the supplement of paper PMC10849652.
Some of the results follow.

The chains behind the UniProt entries cited, without tags or fusion partners. Where a name states a change or a piece, a line headed by the entry shows the natural chain unless it says otherwise.
UniProt Q7Z5J4: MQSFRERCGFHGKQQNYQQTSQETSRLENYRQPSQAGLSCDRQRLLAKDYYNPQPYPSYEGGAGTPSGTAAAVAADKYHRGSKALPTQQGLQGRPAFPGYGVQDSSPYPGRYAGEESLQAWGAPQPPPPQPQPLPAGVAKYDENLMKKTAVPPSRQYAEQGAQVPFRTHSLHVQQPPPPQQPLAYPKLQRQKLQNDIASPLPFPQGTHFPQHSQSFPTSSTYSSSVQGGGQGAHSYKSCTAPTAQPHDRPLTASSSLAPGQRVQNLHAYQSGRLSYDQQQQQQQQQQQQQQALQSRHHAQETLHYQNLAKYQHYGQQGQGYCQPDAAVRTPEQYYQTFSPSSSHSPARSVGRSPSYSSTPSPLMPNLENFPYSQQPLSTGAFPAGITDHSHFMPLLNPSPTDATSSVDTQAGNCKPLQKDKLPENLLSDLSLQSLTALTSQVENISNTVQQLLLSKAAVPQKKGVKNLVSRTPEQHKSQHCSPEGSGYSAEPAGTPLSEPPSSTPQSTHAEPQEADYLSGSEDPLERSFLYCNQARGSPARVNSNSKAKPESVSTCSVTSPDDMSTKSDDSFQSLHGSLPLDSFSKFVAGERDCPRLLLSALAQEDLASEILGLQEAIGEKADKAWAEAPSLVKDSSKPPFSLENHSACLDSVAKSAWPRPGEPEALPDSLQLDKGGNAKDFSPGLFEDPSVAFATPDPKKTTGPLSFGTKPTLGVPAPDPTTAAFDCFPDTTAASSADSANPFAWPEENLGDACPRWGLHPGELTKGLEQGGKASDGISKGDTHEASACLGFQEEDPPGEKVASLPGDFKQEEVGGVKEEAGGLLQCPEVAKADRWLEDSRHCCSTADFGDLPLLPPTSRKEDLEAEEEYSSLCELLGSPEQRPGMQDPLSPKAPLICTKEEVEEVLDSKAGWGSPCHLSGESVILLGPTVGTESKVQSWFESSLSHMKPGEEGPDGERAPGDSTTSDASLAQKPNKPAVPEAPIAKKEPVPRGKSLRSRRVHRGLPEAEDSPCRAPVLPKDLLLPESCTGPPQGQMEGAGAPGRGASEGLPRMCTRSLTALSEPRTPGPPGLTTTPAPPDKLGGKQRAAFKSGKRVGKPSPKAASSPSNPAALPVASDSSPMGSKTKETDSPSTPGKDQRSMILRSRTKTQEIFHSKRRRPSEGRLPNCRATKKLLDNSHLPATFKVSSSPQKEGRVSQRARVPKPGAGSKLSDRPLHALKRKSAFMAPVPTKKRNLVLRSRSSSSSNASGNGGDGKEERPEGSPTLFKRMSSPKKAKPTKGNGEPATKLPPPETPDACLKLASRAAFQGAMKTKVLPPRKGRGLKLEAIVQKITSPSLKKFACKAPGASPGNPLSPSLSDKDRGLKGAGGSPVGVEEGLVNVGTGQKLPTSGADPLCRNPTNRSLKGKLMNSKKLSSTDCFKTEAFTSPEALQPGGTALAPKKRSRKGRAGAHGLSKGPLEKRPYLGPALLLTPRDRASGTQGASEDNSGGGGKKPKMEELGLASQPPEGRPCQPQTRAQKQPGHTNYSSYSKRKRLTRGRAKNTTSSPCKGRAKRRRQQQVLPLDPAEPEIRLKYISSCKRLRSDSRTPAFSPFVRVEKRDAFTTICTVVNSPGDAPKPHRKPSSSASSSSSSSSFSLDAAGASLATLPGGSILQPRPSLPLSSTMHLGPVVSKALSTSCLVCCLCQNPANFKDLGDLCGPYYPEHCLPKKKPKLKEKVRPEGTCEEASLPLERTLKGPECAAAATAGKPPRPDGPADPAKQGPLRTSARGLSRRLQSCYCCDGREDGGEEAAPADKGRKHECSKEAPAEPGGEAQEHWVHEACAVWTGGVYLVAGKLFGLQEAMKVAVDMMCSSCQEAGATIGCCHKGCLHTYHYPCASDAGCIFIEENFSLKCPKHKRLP
UniProt O15315: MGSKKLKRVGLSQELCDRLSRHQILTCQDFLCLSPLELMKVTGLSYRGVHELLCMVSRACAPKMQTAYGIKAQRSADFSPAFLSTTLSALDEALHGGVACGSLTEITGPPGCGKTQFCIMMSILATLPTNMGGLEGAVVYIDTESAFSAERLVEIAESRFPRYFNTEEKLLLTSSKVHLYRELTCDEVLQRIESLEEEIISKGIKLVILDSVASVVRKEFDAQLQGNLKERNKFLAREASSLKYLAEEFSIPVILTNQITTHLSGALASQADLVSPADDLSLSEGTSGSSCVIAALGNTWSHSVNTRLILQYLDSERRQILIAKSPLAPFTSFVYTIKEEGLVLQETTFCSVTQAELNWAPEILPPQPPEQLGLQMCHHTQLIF
UniProt Q15311: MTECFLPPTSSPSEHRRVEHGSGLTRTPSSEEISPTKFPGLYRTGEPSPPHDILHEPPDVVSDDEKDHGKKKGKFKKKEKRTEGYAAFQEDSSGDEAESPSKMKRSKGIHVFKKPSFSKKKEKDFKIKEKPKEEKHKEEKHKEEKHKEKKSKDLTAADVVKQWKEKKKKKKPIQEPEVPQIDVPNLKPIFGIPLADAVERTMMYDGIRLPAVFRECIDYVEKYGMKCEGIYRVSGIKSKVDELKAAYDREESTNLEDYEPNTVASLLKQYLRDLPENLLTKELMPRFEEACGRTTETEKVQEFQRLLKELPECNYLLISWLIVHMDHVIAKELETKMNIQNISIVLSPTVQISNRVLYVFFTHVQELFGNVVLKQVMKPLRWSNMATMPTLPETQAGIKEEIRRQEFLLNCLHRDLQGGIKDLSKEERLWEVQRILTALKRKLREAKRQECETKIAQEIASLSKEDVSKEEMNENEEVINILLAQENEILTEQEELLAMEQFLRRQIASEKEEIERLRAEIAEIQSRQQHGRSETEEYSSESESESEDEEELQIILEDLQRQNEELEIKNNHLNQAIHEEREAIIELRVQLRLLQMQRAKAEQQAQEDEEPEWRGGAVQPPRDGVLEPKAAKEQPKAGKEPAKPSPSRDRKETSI
UniProt O75771: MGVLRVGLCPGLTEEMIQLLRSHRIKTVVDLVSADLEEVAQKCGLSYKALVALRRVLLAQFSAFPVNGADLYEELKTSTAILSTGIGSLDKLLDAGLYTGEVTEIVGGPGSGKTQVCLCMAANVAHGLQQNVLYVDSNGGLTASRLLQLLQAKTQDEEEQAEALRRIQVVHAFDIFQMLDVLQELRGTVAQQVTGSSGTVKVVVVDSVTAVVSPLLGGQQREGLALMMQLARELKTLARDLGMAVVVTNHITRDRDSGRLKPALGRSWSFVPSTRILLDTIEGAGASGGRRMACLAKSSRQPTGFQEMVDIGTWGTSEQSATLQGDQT
UniProt Q15771: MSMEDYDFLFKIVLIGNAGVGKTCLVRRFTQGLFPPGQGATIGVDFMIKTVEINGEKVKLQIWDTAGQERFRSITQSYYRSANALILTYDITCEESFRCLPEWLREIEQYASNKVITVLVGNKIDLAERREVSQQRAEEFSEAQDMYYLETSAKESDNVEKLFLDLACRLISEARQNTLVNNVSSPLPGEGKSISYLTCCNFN
UniProt Q99708: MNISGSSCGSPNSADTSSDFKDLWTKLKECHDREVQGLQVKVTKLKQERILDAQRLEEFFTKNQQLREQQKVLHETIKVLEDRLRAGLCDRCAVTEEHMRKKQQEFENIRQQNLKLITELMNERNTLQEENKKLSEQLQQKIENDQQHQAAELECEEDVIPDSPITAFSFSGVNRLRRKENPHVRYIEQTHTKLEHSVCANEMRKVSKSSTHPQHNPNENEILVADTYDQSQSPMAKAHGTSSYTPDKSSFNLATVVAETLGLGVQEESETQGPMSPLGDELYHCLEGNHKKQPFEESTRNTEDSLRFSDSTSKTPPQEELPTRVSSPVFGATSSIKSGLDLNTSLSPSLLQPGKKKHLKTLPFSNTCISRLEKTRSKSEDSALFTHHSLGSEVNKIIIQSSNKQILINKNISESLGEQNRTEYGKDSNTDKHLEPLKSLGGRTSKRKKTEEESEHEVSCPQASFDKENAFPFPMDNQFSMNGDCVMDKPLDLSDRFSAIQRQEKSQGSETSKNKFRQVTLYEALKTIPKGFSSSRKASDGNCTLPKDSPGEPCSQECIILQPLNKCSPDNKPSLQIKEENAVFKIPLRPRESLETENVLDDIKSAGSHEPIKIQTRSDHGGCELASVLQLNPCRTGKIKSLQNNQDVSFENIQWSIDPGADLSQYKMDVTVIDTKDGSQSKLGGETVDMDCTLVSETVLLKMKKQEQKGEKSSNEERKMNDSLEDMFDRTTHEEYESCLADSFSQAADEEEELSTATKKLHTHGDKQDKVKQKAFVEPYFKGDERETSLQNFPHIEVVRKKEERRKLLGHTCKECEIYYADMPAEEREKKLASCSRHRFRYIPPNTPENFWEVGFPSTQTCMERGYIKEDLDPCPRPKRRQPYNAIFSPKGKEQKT
UniProt Q9H6Z4: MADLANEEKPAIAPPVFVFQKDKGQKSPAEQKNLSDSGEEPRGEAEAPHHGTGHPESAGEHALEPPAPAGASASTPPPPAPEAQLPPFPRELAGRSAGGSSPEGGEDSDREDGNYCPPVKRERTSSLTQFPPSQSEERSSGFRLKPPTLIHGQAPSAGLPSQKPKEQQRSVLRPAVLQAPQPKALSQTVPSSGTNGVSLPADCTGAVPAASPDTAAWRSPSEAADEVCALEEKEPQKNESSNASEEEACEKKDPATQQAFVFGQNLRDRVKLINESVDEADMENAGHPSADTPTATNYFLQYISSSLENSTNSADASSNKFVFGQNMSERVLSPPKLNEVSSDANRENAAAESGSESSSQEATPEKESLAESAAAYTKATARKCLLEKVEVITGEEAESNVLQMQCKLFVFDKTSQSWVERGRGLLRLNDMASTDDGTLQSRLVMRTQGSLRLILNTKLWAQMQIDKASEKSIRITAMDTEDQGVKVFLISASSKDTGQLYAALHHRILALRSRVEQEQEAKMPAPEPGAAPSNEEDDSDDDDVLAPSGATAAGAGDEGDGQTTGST
UniProt Q14644: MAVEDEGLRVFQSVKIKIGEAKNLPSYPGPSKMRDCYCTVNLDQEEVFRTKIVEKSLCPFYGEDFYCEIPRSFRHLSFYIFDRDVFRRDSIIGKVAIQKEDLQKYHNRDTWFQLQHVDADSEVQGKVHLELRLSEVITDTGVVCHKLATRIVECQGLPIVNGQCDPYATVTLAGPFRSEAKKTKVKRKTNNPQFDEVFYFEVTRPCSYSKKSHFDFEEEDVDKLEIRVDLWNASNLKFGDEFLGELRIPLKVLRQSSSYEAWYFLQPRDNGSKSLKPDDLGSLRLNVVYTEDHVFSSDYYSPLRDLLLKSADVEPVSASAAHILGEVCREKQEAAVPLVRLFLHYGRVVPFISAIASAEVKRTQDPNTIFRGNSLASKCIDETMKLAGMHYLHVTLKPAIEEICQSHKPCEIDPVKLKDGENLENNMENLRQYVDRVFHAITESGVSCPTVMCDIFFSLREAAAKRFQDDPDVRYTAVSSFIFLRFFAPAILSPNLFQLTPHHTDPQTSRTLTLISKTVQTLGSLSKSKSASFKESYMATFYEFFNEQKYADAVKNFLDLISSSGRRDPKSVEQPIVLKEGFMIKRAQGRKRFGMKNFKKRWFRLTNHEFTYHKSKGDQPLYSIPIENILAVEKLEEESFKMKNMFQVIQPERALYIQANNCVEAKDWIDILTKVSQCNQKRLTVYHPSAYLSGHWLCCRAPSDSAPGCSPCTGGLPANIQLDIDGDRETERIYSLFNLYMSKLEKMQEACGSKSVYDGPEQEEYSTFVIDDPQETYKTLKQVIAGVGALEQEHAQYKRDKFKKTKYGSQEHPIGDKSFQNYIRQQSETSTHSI

What was measured:
Test in all cases: log2 fold change, soluble protein after heating vs DMSO (PISA); higher = thermal stabilisation; K562 cells, 10 uM, 30 min; active = over 0.2 and 3.5 SD of the protein, either way, in both replicates (recomputed)
[1] = compound: CC1=C(C=C(C=C1)NC(=O)C2=CC(=CC=C2)C(C)(C)C#N)NC3=CC4=C(C=C3)N=CN(C4=O)C
Method in brief: (§1)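 For each measurement, 10 μM compound was applied for 30 min to K562 cells at 2×10^6 cells/mL. Aliquots were heated for 3 min across 48°C-58°C, pooled, and extracted in PBS with 0.5% NP-40 at 4°C; the supernatant after 21,000xg for 90 min was soluble protein. This was quantified by TMTpro 16plex LC-MS/MS with channel sums equalised, and thermal stability was reported relative to control samples from duplicates, on a log2 fold-change scale.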

[2] = compound: CC1=C(C=C(C=C1)NC(=O)C2=CC(=CC=C2)N(C)C)NC(=O)C3=CC=C(C=C3)O
Method in brief: as §1

Nexturastat A = compound: CCCCN(Cc1ccc(C(=O)NO)cc1)C(=O)Nc1ccccc1 [Nexturastat A]
Method in brief: as §1

[3] = compound: CCCc1cc(C)[nH]c(=O)c1CNC(=O)c1cc(-c2ccnc(N3CCN(C)CC3)c2)cc2c1cnn2C(C)C
Method in brief: as §1

givinostat = compound: CCN(CC)Cc1ccc2cc(COC(=O)Nc3ccc(C(=O)NO)cc3)ccc2c1 [givinostat]
Method in brief: as §1

barasertib = compound: CCN(CCCOc1ccc2c(Nc3cc(CC(=O)Nc4cccc(F)c4)[nH]n3)ncnc2c1)CCOP(=O)(O)O [barasertib]
Method in brief: as §1

[4] = compound: CC[C@H](C)N1C=C(C2=C(C=C(C=C21)C3=CN=C(C=C3)N4CCNCC4)C(=O)NCC5=C(C=C(NC5=O)C)C)C
Method in brief: as §1

epoxomicin = compound: CC[C@H](C)[C@@H](C(=O)N[C@@H]([C@@H](C)O)C(=O)N[C@@H](CC(C)C)C(=O)[C@]1(CO1)C)NC(=O)[C@H]([C@@H](C)CC)N(C)C(=O)C [epoxomicin]
Method in brief: as §1

[5] = compound: CCn1c(C(=O)N(C2CC2)C2CC2)cc2c3c(ncn3C)c(Nc3cc(C)n(C)n3)nc21
Method in brief: as §1

rosiglitazone = compound: CN(CCOC1=CC=C(C=C1)C[C@H]2C(=O)NC(=O)S2)C3=CC=CC=N3 (racemic) [rosiglitazone]
Method in brief: as §1

[6] = compound: CC1=CC=C(C=C1)SC2=C3C=C(SC3=CN=C2)C(=O)N
Method in brief: as §1

vemurafenib = compound: CCCS(=O)(=O)Nc1ccc(F)c(C(=O)c2c[nH]c3ncc(-c4ccc(Cl)cc4)cc23)c1F [vemurafenib]
Method in brief: as §1

[7] = compound: CCCS(=O)(=O)Nc1ccc(F)c(C(=O)c2c[nH]c3ncc(Cl)cc23)c1F
Method in brief: as §1

[8] = compound: CC[C@@H]1C(=O)N(C)c2cnc(Nc3ccc(C(=O)NC4CCN(C)CC4)cc3OC)nc2N1C1CCCC1
Method in brief: as §1

volasertib = compound: CC[C@@H]1C(=O)N(C)c2cnc(Nc3ccc(C(=O)N[C@H]4CC[C@H](N5CCN(CC6CC6)CC5)CC4)cc3OC)nc2N1C(C)C [volasertib]
Method in brief: as §1

[9] = compound: CCn1cc(-c2ccnc3[nH]c(-c4cccc(CN(C)C)c4)cc23)c(-c2ccc(NC(=O)N(C)C)cc2)n1
Method in brief: as §1

[10] = compound: CN(C)CC(=O)Nc1ccc2[nH]c(=O)c3ccccc3c2c1
Method in brief: as §1

[11] = compound: CN1C2=C(C3=C1C(=O)N(N=C3)CC4=CC(=CC=C4)N)SC(=C2)S(=O)C
Method in brief: as §1

[12] = compound: CN1CCC(CNc2ccc3ncc(-c4cccc(OC(F)(F)F)c4)n3n2)CC1
Method in brief: as §1

[13] = compound: CC1=NC(=CC=C1)C2=C(N=C(N2)C(C)(C)C)C3=CC4=NC=CN=C4C=C3
Method in brief: as §1

Measured: log2 fold change

RAI1 (UniProt Q7Z5J4)
inactive: [1] -0.335 | [2] 0.35 | Nexturastat A 0.169 | [3] -0.147 | givinostat 0.168 | barasertib 0.2 | [4] -0.001 | epoxomicin 0.025 | [5] -0.053 | rosiglitazone -0.03

RACK1 (UniProt D6RHH4)
inactive: [1] -0.618 | [6] -0.299 | Nexturastat A 0.173 | vemurafenib -0.014 | [7] -0.286 | [3] -0.139 | givinostat 0.027 | barasertib 0.031 | [8] 0.083 | volasertib 0.075 | [4] 0.051 | epoxomicin -0.203 | [5] -0.14 | [9] 0.223 | [10] -0.054 | rosiglitazone 0.222 | [11] 0.01 | [12] -0.53

RAD51B (UniProt O15315)
inactive: [1] 0.053 | [6] -0.012 | Nexturastat A -0.048 | [7] 0.046 | [3] 0.006 | givinostat -0.05 | barasertib 0.093 | [8] 0.134 | volasertib 0.056 | [4] 0.117 | epoxomicin -0.057 | [5] 0.064 | [9] -0.152 | rosiglitazone -0.116 | [11] -0.085 | [12] -0.131

RALBP1 (UniProt Q15311)
inactive: [1] -0.093 | [6] -0.101 | [13] -0.084 | Nexturastat A 0.238 | vemurafenib -0.335 | [7] 0.022 | volasertib -0.02 | epoxomicin -0.184 | [9] 0.149 | [10] 0.197 | [12] -0.114

RAD23A isoform 3 (UniProt P54725)
inactive: [4] 0.131 | [9] 0.152 | [12] -0.086

RAD51D (UniProt O75771)
inactive: [2] -0.078 | [6] 0.047 | [13] 0.088 | vemurafenib -0.33 | [7] 0.037 | [3] -0.034 | givinostat -0.117 | barasertib -0.023 | [8] 0.042 | volasertib -0.119 | [4] 0.147 | [5] 0 | [9] 0.013 | [10] -0.11 | rosiglitazone -0.055 | [11] 0.026 | [12] -0.18

RAB18 (UniProt H0Y6T8)
inactive: [13] 0.051 | vemurafenib -0.065 | [3] -0.464 | barasertib -0.012 | [8] 0.339 | [4] -0.227 | [10] 0.086 | rosiglitazone 0.192

RAB30 (UniProt Q15771)
inactive: [2] 0.006 | [6] -0.046 | [13] -0.001 | Nexturastat A -0.069 | vemurafenib 0.03 | [7] -0.077 | [3] 0 | givinostat 0.017 | barasertib -0.016 | [8] 0.073 | volasertib 0.065 | [4] -0.042 | epoxomicin -0.067 | [5] 0.043 | [9] 0.104 | [10] -0.05 | rosiglitazone -0.038 | [11] 0.067 | [12] 0.158

RBBP8 isoform 2 (UniProt Q99708)
inactive: [6] 0 | [13] -0.066 | [7] 0.009 | givinostat 0.059 | volasertib -0.22 | [5] 0.041

RANBP3 isoform 2 (UniProt Q9H6Z4)
inactive: [1] 0 | [3] -0.04 | givinostat -0.014 | barasertib -0.01 | [8] -0.012 | [4] -0.069 | [5] 0 | [9] 0.036 | rosiglitazone 0.044 | [12] -0.014

RASA3 (UniProt Q14644)
inactive: [9] 0.264 | [11] -0.172 | [12] 0.05

RABGAP1L isoform 5 (UniProt Q5R372)
inactive: [1] -0.106 | [6] -0.047 | [13] -0.055 | Nexturastat A -0.009 | [7] -0.016 | [3] -0.197 | givinostat -0.013 | barasertib 0 | volasertib 0.01 | [4] 0.074 | epoxomicin -0.085 | [11] 0.059
